Source: PubChem BioAssay AID1671190 (National Center for Advancing Translational Sciences (NCATS), 2021)
The whole screen tested about 580,000 compounds, of which about 6,100 (1.1%) were called active. Inconclusive means that the source gave no clear call. Such entries were picked first, then a sample of the others. Calls follow the shape of the dose curve; as a rule, active = well fitted inhibition curve with a large enough effect; inconclusive = small, poorly fitted or top-dose-only effect, or another doubt; inactive = no such curve, though single readings can be large or run the other way. Where the call is inconclusive, the potency comes from a doubtful curve fit.

Amino acid sequences for entries named in this document (tags omitted).
UniProt P18054, whole entry, looked up: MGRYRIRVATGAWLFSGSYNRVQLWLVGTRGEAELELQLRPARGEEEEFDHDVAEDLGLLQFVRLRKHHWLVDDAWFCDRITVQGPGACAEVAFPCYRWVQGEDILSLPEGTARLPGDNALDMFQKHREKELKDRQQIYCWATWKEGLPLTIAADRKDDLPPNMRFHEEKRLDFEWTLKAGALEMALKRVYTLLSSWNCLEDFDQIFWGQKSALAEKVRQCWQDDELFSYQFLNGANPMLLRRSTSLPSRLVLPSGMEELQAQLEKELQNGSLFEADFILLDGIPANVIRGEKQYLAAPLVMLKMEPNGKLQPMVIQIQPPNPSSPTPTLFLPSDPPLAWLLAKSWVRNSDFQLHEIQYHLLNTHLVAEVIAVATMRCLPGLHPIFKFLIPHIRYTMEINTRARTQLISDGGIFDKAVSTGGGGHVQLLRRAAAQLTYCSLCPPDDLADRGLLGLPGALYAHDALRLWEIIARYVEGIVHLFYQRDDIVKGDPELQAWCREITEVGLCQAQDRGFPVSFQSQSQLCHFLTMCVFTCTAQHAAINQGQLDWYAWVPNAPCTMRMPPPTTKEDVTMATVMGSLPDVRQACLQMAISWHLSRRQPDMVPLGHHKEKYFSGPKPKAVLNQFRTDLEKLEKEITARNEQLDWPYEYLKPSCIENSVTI

target: Polyunsaturated fatty acid lipoxygenase ALOX12 (Homo sapiens) (UniProt P18054); test: Primary qHTS assay for inhibitors of human arachidonate 12S-lipoxygenase (ALOX12): Round 2; details: purified 12hLO, xylenol orange hydroperoxide absorbance; series mostly up to 108 µM
Summary of the method: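 Purified human 12hLO (150 nM final) in 25 mM Hepes, 0.01% Triton X-100, pH 7.0 was preincubated 15 min at room temperature with compound. Then 40 uM arachidonic acid was added, 30 min. Hydroperoxide was read by Fe-XO absorbance ratio 573/405 nm.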
Potency is read from the fitted curve at half-maximal effect.

SMILES	Potency
Cc1cccc(C(=O)Nc2ccc(C(=O)N/N=C/c3ccc4c(c3)OCO4)cc2)c1	inconclusive: 100 µM [inhibitor, single point]
CCOC(=O)C1=C(c2ccc(OC)cc2)OC(N)=C(C#N)C1c1cccnc1 (centres undefined)	inconclusive: 141 µM [inhibitor, single point]
CCOc1cccc(/C=C2\N=C(SC)SC2=O)c1	inconclusive: 50.1 µM [inhibitor, partial curve, poor fit]
CCC(=O)OCCNc1cc(Sc2nccn2C)c2nonc2c1[N+](=O)[O-]	inconclusive: 39.8 µM [inhibitor, partial curve]
O=C(N/N=C/c1c[nH]c2ccc(Br)cc12)c1ccccn1	inactive
Cc1nc2nc(N)nn2c(C)c1CCC(=O)NCCC(C)C	inactive
O=C(CSc1nnc(-c2ccco2)n1C1CCCCC1)Nc1ccccc1C(=O)NC1CC1	inactive
COc1ccc(CCNC(=O)CSc2nnc(-c3ccccc3)c3ccccc23)cc1OC	inactive
O=C1NC(C(=O)O)=CC(c2ccccc2Cl)N1 (centres undefined)	inconclusive: 0.0708 µM [inhibitor, full curve, poor fit]
NC(=O)CC(NC(=O)c1ccc(Br)cc1)c1ccc(NC2CCCCC2)c([N+](=O)[O-])c1 (centres undefined)	inactive
COc1cccc(CN(C)C(=O)c2cccc(NC(=O)CC3SC(N4CCCCC4)=NC3=O)c2)c1OC (centres undefined)	inconclusive: 100 µM [inhibitor, single point]
Cc1ccc(OCC(=O)Nc2ccc3oc(-c4ccccc4)nc3c2)c(C)c1	inconclusive: 2.51 µM [inhibitor, full curve, poor fit]
COC(=O)C1=C(C)N(c2cc(Cl)cc(Cl)c2)C(=O)C1	inconclusive: 100 µM [inhibitor, partial curve, poor fit]
Cc1ccc(-c2noc(C3CCCN3Cc3ccccc3)n2)nn1 (centres undefined)	inconclusive: 11.2 µM [inhibitor, partial curve, poor fit]
O=C(NCc1ccc(Cl)cc1)c1ccc(CNc2c(N3CCCC3)c(=O)c2=O)cc1	inconclusive: 141 µM [inhibitor, partial curve, poor fit]
N#CNC(=Nc1ccc(F)cc1)SCc1ccccc1	inactive
CC(C)c1noc([C@@H]2C[C@@H](O)CN2Cc2ccc(S(C)(=O)=O)cc2)n1	inconclusive: 11.2 µM [inhibitor, full curve]
O=C(NC1CCN(c2cn[nH]c(=O)c2)CC1)C1CCC1	inactive
CC(=O)c1cc(CN2C[C@H]3CC[C@@H]2CN(S(=O)(=O)N(C)C)C3)n(C)c1	inactive
O=c1[nH]c(=O)n(Cc2ccc(Oc3ccccc3)cc2)cc1Br	inactive
S=C(c1ccc(-c2cc(Cl)ccc2Cl)o1)N1CCOCC1	inconclusive: 44.7 µM [inhibitor, partial curve, poor fit]
O[C@@H]1C[C@@H](c2nc(Cc3ccccc3)no2)N(Cc2cc3ccccc3o2)C1	inconclusive: 31.6 µM [inhibitor, full curve]
COc1ccc(C(O)c2ncc(-c3cccc(C(F)(F)F)c3)[nH]2)cc1 (centres undefined)	inactive

SMILES	Potency
CCCCC(=O)Nc1ccc2oc(-c3ccc(Cl)cc3)nc2c1	inconclusive: 35.5 µM [inhibitor, single point]
COc1cccc(-c2coc3c(C)c4oc(=O)c(CC(=O)O)c(C)c4cc23)c1	inactive
COc1ccc(C2CCCN2C(=O)c2ccc(-n3cccn3)cc2)c(OC)c1 (centres undefined)	inactive
CCC1=C(C(=O)OC)C(c2cccc(C)c2)N2C(CC(=O)N3CCCCC3C)=CSC2=N1 (centres undefined)	inconclusive: 5.01 µM [inhibitor, full curve, poor fit]
Cc1onc(-c2c(F)cccc2Cl)c1C(=O)N1CCCc2ccccc21	inactive
Cc1ccc(-c2c(C)n3c4c(=O)n(C)c(=O)n(C)c4nc3n2-c2cccc(O)c2)cc1	inconclusive: 50.1 µM [inhibitor, partial curve, poor fit]
COc1cccc(N(C(=O)Cn2nnc(-c3ccc(C)o3)n2)C(C(=O)NC2CCCC2)c2ccncc2)c1 (centres undefined)	inconclusive: 79.4 µM [inhibitor, partial curve, poor fit]
CC(C)(C)c1ccc(-c2nc(C#N)c(NCC3CCCO3)o2)cc1 (centres undefined)	inactive
CCOC(=O)C(=CNc1ccc(C(F)(F)F)cc1Cl)C(=O)OCC	inconclusive: 112 µM [inhibitor, partial curve, poor fit]
CN1CCC(=C2c3ccccc3C(O)c3ccccc32)CC1 (centres undefined)	inactive
COc1ccccc1CNc1nc(-c2ccc(N(C)C)cc2)nc2ccccc12	active: 28.2 µM
Cc1cc(C)cc(NC(=O)CSc2oc(-c3cccs3)nc2S(=O)(=O)c2ccccc2)c1	inconclusive: 100 µM [inhibitor, partial curve, poor fit]
O=C(NC1CCCCC1)C(c1ccccc1)n1c(=O)c(-c2ccco2)nc2ccccc21 (centres undefined)	inconclusive: 50.1 µM [inhibitor, partial curve, poor fit]
Cc1ccc(-c2csc(N3CCN(CCCn4c(C(F)(F)F)nc5ccccc54)CC3)n2)cc1	inactive
Cc1ccc(/C=C/S(=O)(=O)NCC(=O)OCC(=O)c2c[nH]c3ccccc23)cc1	inconclusive: 44.7 µM [inhibitor, partial curve, poor fit]
COc1ccc(C(=O)NCCCn2cccn2)cc1OC1CCN(C(C)=O)CC1	inconclusive: 112 µM [inhibitor, single point]
Cn1c(=O)cc(OCC(=O)NCCCN2CCN(c3cccc(Cl)c3)CC2)c2ccccc21	inactive
NC(=O)C[C@H](NC(=O)Cc1ccc(O)cc1O)C(=O)O	inconclusive: 20 µM [inhibitor, single point]
CCOC(=O)c1c(NC(=O)COC(=O)c2ccccc2NC)sc(C(=O)N(C)C)c1C	inactive
Cc1oc2c(c1C(=O)N1CCOCC1)CN(C(=O)c1ccnn1C)CC2	inactive
N#Cc1cccc(-c2cn(S(=O)(=O)c3ccc(Cl)cc3)nc2N)c1	inconclusive: 28.2 µM [inhibitor, partial curve, poor fit]
CCOC(=O)c1cc(S(=O)(=O)N2CCN(c3cc(C)ccc3C)CC2)[nH]n1	inactive
COc1cc(F)ccc1S(=O)(=O)NCc1cccnc1	inactive

SMILES	Potency
CCN(CC)C(=O)CSc1nnc(-c2cc3ccccc3cc2O)n1CC	inconclusive: 0.199 µM [inhibitor, full curve, poor fit]
COc1ccc(NC(=S)N(CCC(C)C)C2CCN(C(C)C)CC2)cc1Cl	inconclusive: 44.7 µM [inhibitor, partial curve, poor fit]
N/C(COc1cccc(Cl)c1)=N\O	inconclusive: 100 µM [inhibitor, partial curve, poor fit]
CC(Nc1ccc([N+](=O)[O-])cn1)c1nc2ccccc2n1C(F)F (centres undefined)	inactive
NS(=O)(=O)c1ccc(CNC(=S)NC2CC2)cc1	inconclusive: 79.4 µM [inhibitor, partial curve, poor fit]
COc1ccc(C(=O)NC(=S)Nc2nc(C)c(C(=O)N(C)C)s2)cc1	inconclusive: 5.01 µM [inhibitor, full curve, poor fit]
COC(=O)C[C@H]1C[C@H]2c3cc(NC(=O)Nc4ccc(C(F)(F)F)cc4)ccc3O[C@H]2[C@@H](CO)O1	inconclusive: 100 µM [inhibitor, single point]
O=C(N/N=C/c1cccnc1)c1cccc(NC(=O)c2cccc(Br)c2)c1	inactive
FC(F)(F)c1cccc(N/N=C/c2ccccc2Br)c1	inconclusive: 3.16 µM [inhibitor, full curve, poor fit]
CCCNC(=O)NC(=O)COC(=O)c1cc(-c2ccco2)nc2ccccc12	inconclusive: 7.08 µM [inhibitor, full curve, poor fit]
CSC1=NCCN1C(=O)c1ccc(C)cc1	inactive
Cc1cccc(N/C=C(\[N+](=O)[O-])S(=O)(=O)c2ccccc2)c1C	inconclusive: 100 µM [inhibitor, partial curve, poor fit]
CCCOc1cccc(C(=O)Nc2ccc3oc(-c4cccnc4)nc3c2)c1	inconclusive: 39.8 µM [inhibitor, partial curve, poor fit]
Brc1cccc(OCCN2CCOCC2)c1	inconclusive: 4.47 µM [inhibitor, full curve, poor fit]
Cc1oc(/N=C/c2ccc(Cl)cc2Cl)c(C#N)c1C	inconclusive: 63.1 µM [inhibitor, partial curve, poor fit]
O=C(CCc1nc(CSc2n[nH]c(-c3ccc(Cl)cc3)n2)no1)Nc1ccc2ccccc2c1	inactive
N#Cc1ccc(COC(=O)c2ccccc2SCC2CCCO2)cc1 (centres undefined)	inactive
Cc1cc(C)n(CC(O)CN2c3ccccc3Sc3ccccc32)n1 (centres undefined)	inconclusive: 89.1 µM [inhibitor, partial curve, poor fit]
O=S(=O)(Nc1cccnc1)c1cccc(C(F)(F)F)c1	inactive
Cn1c(C(=O)OC(C(=O)NC2CCCCC2)c2ccccn2)cc2sccc21 (centres undefined)	inconclusive: 44.7 µM [inhibitor, single point]
COc1ccc(-c2cc3nccn3c(Nc3ncccc3C(N)=O)n2)cc1OC	active: 1.37 µM
O=C(NCCN1CCCC1)c1ccc(Cn2c(=S)[nH]c3ccc(Br)cc3c2=O)cc1	inconclusive: 100 µM [inhibitor, single point]
Cc1ccc(S(=O)(=O)Nc2ccc(Nc3nccn4c(-c5cccc(OC(F)(F)F)c5)cnc34)cc2)cc1	inconclusive: 100 µM [inhibitor, partial curve, poor fit]

Some of the entries so far, bar-delimited.
SMILES | Potency
CCOC(=O)C1=C(c2ccc(OC)cc2)OC(N)=C(C#N)C1c1cccnc1 (centres undefined) | inconclusive: 141 µM [inhibitor, single point]
CCOc1cccc(/C=C2\N=C(SC)SC2=O)c1 | inconclusive: 50.1 µM [inhibitor, partial curve, poor fit]
CCC(=O)OCCNc1cc(Sc2nccn2C)c2nonc2c1[N+](=O)[O-] | inconclusive: 39.8 µM [inhibitor, partial curve]
